Data from patent US20240358020A1, “FORMAMIDE DERIVATIVE AND AGRICULTURAL OR HORTICULTURAL PLANT DISEASE CONTROL AGENT” (Kumiai Chemical Industry Co., Ltd., priority 2021, published 2024).
Some of these results come from one statement about several compounds together.

Experiments:
[1] = tested on: Soybean Rust (Phakopsora pachyrhizi); experiment: Soybean rust control effect test; type: in vivo; settings: sprayed on soybean seedlings at 100 g a.i./ha, then spray-inoculated; disease severity of first leaf examined after 12 to 14 days
Excerpt: [Test Example 1] Soybean Rust (Phakopsora pachyrhizi) Control Effect Test
Soybean seeds were sown in a pot and sprayed on the grown seedlings so that the amount of the active ingredient was 100 g a.i./ha. Thereafter, a soybean rust fungus was spray-inoculated, the pot was transferred to a wet room and was kept under dark conditions, and invasion of pathogens was promoted. Thereafter, the pot was managed in a greenhouse, after 12 to 14 days, a degree of disease severity for each first leaf was examined according to the criteria in Table 226 to determine a degree of disease severity by a calculation formula of Equation 1, and a control value was determined by a calculation formula of Equation 2.
(§1) [in the formula, N represents the total number of examined leaves, n0 represents the number of leaves having a disease severity index of 0, n1 represents the number of leaves having a disease severity index of 1, n2 represents the number of leaves having a disease severity index of 2, n3 represents the number of leaves having a disease severity index of 3, and n4 represents the number of leaves having a disease severity index of 4.]

[2] = tested on: Rice Sheath Blight Disease (Rhizoctonia solani); experiment: Rice sheath blight disease control effect test; type: in vivo; settings: chemical solution 50 ppm active ingredient sprayed on rice seedlings, then inoculated with bran medium culture; lesion height examined after 5 days
Excerpt: as §1
[Test Example 3] Rice Sheath Blight Disease (Rhizoctonia solani) Control Effect Test
Rice seeds were sown in a pot, and a chemical solution was sprayed on the grown seedlings so that the concentration of the active ingredient was 50 ppm. Thereafter, a bran medium in which a rice sheath blight fungi was cultured was inoculated into the strain, the bran medium was transferred to a wet room, and invasion of pathogens was promoted. Thereafter, the pot was managed in a greenhouse, after 5 days, a lesion height was examined according to the criteria in Table 221 to determine a degree of disease severity by a calculation formula of Equation 1, and a control value was determined by a calculation formula of Equation 2.

SMILES	control value [1]	control value [2]
O=CNc1ccc(-c2noc(C(F)(F)F)n2)cc1 [Compound A-0001, N-{4-[5-(trifluoromethyl)-1,2,4-oxadiazol-3-yl]phenyl}formamide]	≥ 80	
O=CN(Cc1ccccc1)c1ccc(-c2noc(C(F)(F)F)n2)cc1 [Compound A-0096, N-benzyl-N-{4-[5-(trifluoromethyl)-1,2,4-oxadiazol-3-yl]phenyl}formamide]	≥ 80	more than 75
O=CN(Cc1cnc2ccccc2c1)c1ccc(-c2noc(C(F)(F)F)n2)cc1 [Compound B-0004, N-(quinolin-3-ylmethyl)-N-{4-[5-(trifluoromethyl)-1,2,4-oxadiazol-3-yl]phenyl}formamide]		more than 75
O=CN(CC1CCCO1)c1ccc(-c2noc(C(F)(F)F)n2)cc1 (centres unmarked) [Compound B-0810, N-[(tetrahydrofuran-2-yl)methyl]-N-{4-[5-(trifluoromethyl)-1,2,4-oxadiazol-3-yl]phenyl}formamide]	≥ 80	
